No constants are given. Whether binding was seen depends on the method and setting. Binding seen in cells or lysates may run through a third protein. Some entries that bind do so weakly or less than the wild type.
Legend:
[1] = target: TAZ (Transcriptional Coactivator with PDZ-Binding Motif), endogenous protein in human breast cancer cell lysates (human) (UniProt Q9GZV5); experiment: co-immunoprecipitation with anti-HA from Hs578T lysates, immunoblot
[2] = target: TAZ (Transcriptional Coactivator with PDZ-Binding Motif), endogenous protein in human breast cancer cell lysates (human) (UniProt Q9GZV5); experiment: co-immunoprecipitation, figure legend of FIG. 8B

Amino acid sequences for entries named in this document (tags omitted). Residues count along the entry.
UniProt Q9GZV5: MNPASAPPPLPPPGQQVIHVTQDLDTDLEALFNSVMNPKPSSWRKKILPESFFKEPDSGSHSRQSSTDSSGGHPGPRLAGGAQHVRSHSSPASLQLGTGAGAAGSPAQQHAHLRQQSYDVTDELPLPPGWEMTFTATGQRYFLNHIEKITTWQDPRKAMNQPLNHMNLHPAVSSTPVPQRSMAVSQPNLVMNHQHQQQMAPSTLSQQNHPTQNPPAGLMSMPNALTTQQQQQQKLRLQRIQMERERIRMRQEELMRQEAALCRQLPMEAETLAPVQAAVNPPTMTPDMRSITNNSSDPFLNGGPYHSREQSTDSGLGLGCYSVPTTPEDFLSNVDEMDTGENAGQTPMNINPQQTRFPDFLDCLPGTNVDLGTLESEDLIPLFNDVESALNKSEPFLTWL
UniProt P28347, residues 16-426: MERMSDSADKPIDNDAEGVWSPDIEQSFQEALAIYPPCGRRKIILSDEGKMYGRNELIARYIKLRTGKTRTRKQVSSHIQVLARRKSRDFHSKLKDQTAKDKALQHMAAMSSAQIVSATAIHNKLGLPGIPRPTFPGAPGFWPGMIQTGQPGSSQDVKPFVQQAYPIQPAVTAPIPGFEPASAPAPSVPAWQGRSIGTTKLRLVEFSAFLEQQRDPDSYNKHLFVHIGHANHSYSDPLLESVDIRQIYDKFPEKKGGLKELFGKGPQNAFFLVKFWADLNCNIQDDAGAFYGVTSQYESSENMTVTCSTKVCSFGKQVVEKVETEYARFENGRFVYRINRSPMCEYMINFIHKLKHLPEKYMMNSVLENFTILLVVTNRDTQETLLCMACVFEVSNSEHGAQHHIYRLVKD
UniProt Q15562: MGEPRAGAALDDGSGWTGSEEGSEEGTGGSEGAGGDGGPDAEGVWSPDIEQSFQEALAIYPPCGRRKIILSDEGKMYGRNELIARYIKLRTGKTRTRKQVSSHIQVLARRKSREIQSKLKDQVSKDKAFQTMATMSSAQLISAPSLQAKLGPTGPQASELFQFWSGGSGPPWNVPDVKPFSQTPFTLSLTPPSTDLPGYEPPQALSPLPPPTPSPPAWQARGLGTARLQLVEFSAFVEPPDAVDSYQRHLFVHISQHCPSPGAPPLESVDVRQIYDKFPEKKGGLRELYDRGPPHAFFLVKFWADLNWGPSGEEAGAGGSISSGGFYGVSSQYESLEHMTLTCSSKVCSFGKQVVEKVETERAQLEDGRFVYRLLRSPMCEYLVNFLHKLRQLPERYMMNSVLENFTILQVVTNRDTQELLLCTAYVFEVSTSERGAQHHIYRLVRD

Row | Substance | binding [1] | binding [2]
1 | HA-TEAD1 (from UniProt P28347 16-426) | binds | binds
2 | HA-TEAD2 (from UniProt Q15562 1-447) | binds | binds

Reference: patent US20110027186A1
